Measurements: patent EP2239269B1, “Use of peptides derived from copolymer-1 as molecular weight markers” (YEDA RESEARCH AND DEVELOPMENT CO., LTD., priority 1998, dated 2013)
Not every detail of the peptide structures is certain; ends, links or a residue may be inferred. Where no end group is shown, it is not given here.

Legend:
Assay type in all cases: physicochemical
[1] = Circular dichroism, molar ellipticity (Jobin-Yvon CD spectrophotometer); design: unit not given here
From the text: Circular dichroism - Structural similarity between the molecular weight markers and glatiramer acetate is a pre-requisite for an appropriate calibration of a molecular sizing column. Differences in polypeptide structure may result in different hydrodynamic size and consequently in altered retention time in the chromatographic system. The ellipticity, determined by circular dichroism, serves as a measure of the secondary structure of a polypeptide. When the ellipticity of the molecular weight markers and glatiramer acetate is similar, the structures of the two will be similar.
The molar ellipticity of the polypeptides was determined on a Jobin-Yvon CD spectrophotometer. […] Note that while the exact molecular weight for the TV-markers was plotted, the averace-by-number molecular weight for the glatiramer acetate was used in the plot.

[2] = Stability of marker solutions stored frozen at -10 to -20°C, followed by retention time at column calibration; design: unit not given here; settings: stored at -10° to -20°C
Experimental: In addition, solutions of the markers were stored for up to 3 ½ months under various storage conditions (2-8 °C, -10 to -20°C, with/without azide).

[3] = Stability of markers in solution at room temperature, followed by peak retention time on chromatography; settings: for Peak Retention Time, Average: average of the four analyses over 24 hours, room temperature; for Peak Retention Time: solution at room temperature, 0.1 mg/ml
Experimental: Stability of markers in solution - TV-markers were chromatographed four times over a period of 24 hours. All markers were kept as solutions at room temperature and were analyzed at 8 hour intervals.

[4] = date of calibration 04-step-97, interval 105 days
[5] = date of calibration 09-Jul-97, interval 48 days
[6] = date of calibration 22-May-97, interval -
[7] = 1st of four analyses at 8 hour intervals over 24 hours
[8] = 2nd of four analyses at 8 hour intervals
[9] = 3rd of four analyses at 8 hour intervals
[10] = 4th of four analyses at 8 hour intervals

| Sequence | M-ellip. (210nm) [1] | RT [2, 4] | RT [2, 5] | RT [2, 6] | Peak Retention Time, Average [3] | Peak Retention Time [3, 7] | Peak Retention Time [3, 8] | Peak Retention Time [3, 9] | Peak Retention Time [3, 10] |
| --- | --- | --- | --- | --- | --- | --- | --- | --- | --- |
| AKKYAKKAKAEKAKKAYKAAEAKKAAKYEKAAAEKAAAKEAAYEA [TV-45] | -2.1651 | 27.950 | 27.917 | 27.833 | 28.925 | 28.933 min | 28.917 min | 28.917 min | 28.933 min |
| AKKYAKKEKAYAKKAEKAAKKAEAKAYKAAEAKKKAEAKYKAEAAKAAAKEAAYEA [TV-56] | -3.9658 | 27.100 | 27.133 | 27.076 | 28.250 | 28.250 min | 28.217 min | 28.283 min | 28.250 min |
